Literature values as cited in patent EP0987023A1, “Transition metal complexes of non steroidal anti-inflammatory drugs” (PANACEA BIOTEC LIMITED, priority 1998, dated 2000).
For at least one compound, name, drawing or mass did not settle the structure.

Details: collected values of NSAIDs; cited from earlier work

## CCCCC1C(=O)N(c2ccccc2)N(c2ccccc2)C1=O [Phenylbutazone]
  ED50: 20.5 mg/kg
